Reference: PubChem BioAssay AID248 (DTP/NCI, 2004)
The list shows only some results of the screen, not a fair sample: it gathers tests that were run many times, whatever their T/C, doses with no T/C, and many T/C values between a quarter and a half above the control. Other doses and runs of a compound stand elsewhere. T/C: endpoint of the treated group in % of that of the vehicle group. Some entries give survivors of the animals treated and no T/C: the source files T/C as zero there, which appears to mark a toxic dose or a test without result, not a measured value. Some doses without a T/C left all or most animals alive at the check, yet need not have been tolerated: survival well below the control is almost never listed, so the zero probably covers shortened survival too. Counts of survivors are from the toxicity check (mostly the fifth day) where no day follows; animals may have died later. Schedules are NCI's codes, read here as Q, the interval in days (D) or hours (H), X, the number of doses. Some doses were run more than once; their values stand side by side, smallest first. For survival time, the PubChem record calls one and a half times the control and up active, and a quarter to a half above the control has no call in these data; cut-offs in other NCI protocols can differ.

Test system: L1210 leukemia ip in BDF1 mice, survival T/C
Assay: NCI In Vivo Anticancer Drug Screen. Data for tumor model L1210 Leukemia (intraperitoneal) in B6D2F1 (BDF1) mice
Conditions: T/C endpoint: mean survival time, higher T/C = longer survival
[1] = dose: 200.0 mg/kg/injection, schedule: Q04DX002 (ip), vehicle: saline with Tween-80
[2] = dose: 400.0 mg/kg/injection, schedule: Q04DX002 (ip), vehicle: saline with Tween-80
[3] = dose: 150.0 mg/kg/injection, schedule: Q01DX001 (ip), vehicle: other
[4] = dose: 300.0 mg/kg/injection, schedule: Q01DX001 (ip), vehicle: other
[5] = dose: 100.0 mg/kg/injection, schedule: Q04DX003 (ip), vehicle: saline with Tween-80
[6] = dose: 200.0 mg/kg/injection, schedule: Q04DX003 (ip), vehicle: saline with Tween-80
[7] = dose: 400.0 mg/kg/injection, schedule: Q04DX003 (ip), vehicle: saline with Tween-80
[8] = dose: 200.0 mg/kg/injection, schedule: Q01DX009 (ip), vehicle: saline with Tween-80
[9] = dose: 400.0 mg/kg/injection, schedule: Q01DX001 (ip), vehicle: carboxymethylcellulose (CMC)
[10] = dose: 100.0 mg/kg/injection, schedule: Q04DX002 (ip), vehicle: saline with Tween-80

Q: Which results are given for COc1ccc(CCNC(=O)c2ccc(Cl)c(Cl)c2)cc1OC?
A: survivor count [1]: 3 of 3; survivor count [2]: 3 of 3

Q: Which results are given for N#CCCC[P+](c1ccccc1)(c1ccccc1)c1ccccc1?
A: survivor count [3]: 1 of 6; survivor count (dose: 200.0 mg/kg/injection, schedule: Q04DX002 (ip), vehicle: Klucel (hydroxypropylcellulose) (HPC)): 0 of 3; survivor count [4]: 0 of 6; survivor count (dose: 400.0 mg/kg/injection, schedule: Q04DX002 (ip), vehicle: Klucel (hydroxypropylcellulose) (HPC)): 0 of 3

Q: With C/C(=C\Cl)COC1CCCCO1 (stereo unspecified) as the compound, how does the survivor count (dose: 400.0 mg/kg/injection, schedule: Q01DX009 (ip), vehicle: acetone) read?
A: The survivor count was 3 of 6.

Q: What does the source list for CC[N+](CC)(CC)CCC[N+](CC)(CC)CC?
A: survivor count (dose: 100.0 mg/kg/injection, schedule: Q01DX009 (ip), vehicle: water): 6 of 6; survivor count (dose: 200.0 mg/kg/injection, schedule: Q01DX009 (ip), vehicle: water): 1 of 6; survivor count (dose: 400.0 mg/kg/injection, schedule: Q04DX003 (ip), vehicle: water): 2 of 6

Q: CN1CCc2[nH]c3ccccc3c2C1 was tested. Which survivor count (dose: 300.0 mg/kg/injection, schedule: Q04DX003 (ip), vehicle: Klucel (hydroxypropylcellulose) (HPC)) did it give?
A: The survivor count was 0 of 6.

Q: With O=P(Oc1ccccc1)(Oc1ccccc1)C(Nc1ccccc1)c1ccccc1 (stereo unspecified) as the compound, how does the survivor count [5] read?
A: Its survivor count is 6 of 6.

Q: And the survivor count [6]?
A: Its survivor count is 6 of 6.

Q: Which survivor count [7] does the source give for O=C1OCc2cccc3cccc1c23 here?
A: The survivor count was 1 of 3.

Q: With c1ccc(Oc2ccc(-c3ccc(Oc4ccccc4)cc3)cc2)cc1 as the compound, how does the survivor count [8] read?
A: The survivor count was 6 of 6.

Q: Which survivor count (dose: 400.0 mg/kg/injection, schedule: Q01DX009 (ip), vehicle: other) does the source give for BrCCOc1ccccc1 here?
A: Its survivor count is 2 of 6.

Q: Which survivor count (dose: 200.0 mg/kg/injection, schedule: Q04DX002 (ip), vehicle: saline) does the source give for CC12CC3CC(C)(C1)CC(OCCN)(C3)C2 here?
A: The survivor count was 0 of 3.

Q: And the survivor count (dose: 400.0 mg/kg/injection, schedule: Q04DX002 (ip), vehicle: saline)?
A: The survivor count was 0 of 3.

Q: Which survivor count [7] does the source give for CC12CC1(C)C(=O)OC2=O (stereo unspecified) here?
A: Its survivor count is 3 of 6.

Q: For Nc1ccc(S(=O)(=O)CI)cc1, which survivor count [9] is on record?
A: The survivor count was 0 of 4.

Q: How did the survivor count (dose: 75.0 mg/kg/injection, schedule: Q01DX001 (ip), vehicle: other) turn out when NNc1ccccc1-c1nc(N)nc(N)n1 was run?
A: Its survivor count is 2 of 6.

Q: What about the survivor count [3] of the same compound?
A: The survivor count was 1 of 6.

Q: What about the survivor count [4] of the same compound?
A: The survivor count was 0 of 6.

Q: For CN(C)C(=S)N1C(=O)C2C3CCC(O3)C2C1=O (stereo unspecified), which survivor count (dose: 12.5 mg/kg/injection, schedule: Q01DX009 (ip), vehicle: saline with Tween-80) is on record?
A: The survivor count was 0 of 3.

Q: What about the survivor count (dose: 25.0 mg/kg/injection, schedule: Q04DX002 (ip), vehicle: saline with Tween-80) of the same compound?
A: Its survivor count is 0 of 3.

Q: And the survivor count [10]?
A: Its survivor count is 0 of 3.

Q: What about the survivor count [1] of the same compound?
A: The survivor count was 0 of 3.

Q: And the survivor count [2]?
A: The survivor count was 0 of 3.

Q: For ClCCN(CCCl)c1ccc(CNCCCNCc2ccc(N(CCCl)CCCl)cc2)cc1, which survivor count (dose: 40.0 mg/kg/injection, schedule: Q01DX001 (ip), vehicle: carboxymethylcellulose (CMC)) is on record?
A: The survivor count was 2 of 4.

Q: And the survivor count (dose: 50.0 mg/kg/injection, schedule: Q01DX001 (ip), vehicle: carboxymethylcellulose (CMC))?
A: The survivor count was 0 of 4.

Q: What about the survivor count (dose: 80.0 mg/kg/injection, schedule: Q01DX001 (ip), vehicle: carboxymethylcellulose (CMC)) of the same compound?
A: Its survivor count is 0 of 4.

Q: And the survivor count (dose: 100.0 mg/kg/injection, schedule: Q01DX001 (ip), vehicle: carboxymethylcellulose (CMC))?
A: Its survivor count is 0 of 4.

Q: What about the survivor count (dose: 200.0 mg/kg/injection, schedule: Q01DX001 (ip), vehicle: carboxymethylcellulose (CMC)) of the same compound?
A: Its survivor count is 0 of 4.

Q: And the survivor count [9]?
A: Its survivor count is 0 of 4.

Q: With CN(C)CCCN=Cc1cc(Cl)ccc1O.CN(C)CCCN=Cc1cc(Cl)ccc1O.[Ni+2] as the compound, how does the survivor count [5] read?
A: Its survivor count is 3 of 6.

Q: And the survivor count [6]?
A: The survivor count was 1 of 6.

Q: And the survivor count [7]?
A: Its survivor count is 0 of 6.

Q: Which survivor count (dose: 200.0 mg/kg/injection, schedule: Q01DX001 (ip), vehicle: saline) does the source give for O=[N+]([O-])c1ccc(Cl)cc1/C=N/Nc1c2ccccc2nc2ccccc12 here?
A: The survivor count was 4 of 4.

Q: What about the survivor count (dose: 400.0 mg/kg/injection, schedule: Q01DX001 (ip), vehicle: saline) of the same compound?
A: Its survivor count is 4 of 4.

Q: Which survivor count (dose: 25.0 mg/kg/injection, schedule: Q01DX009 (ip), vehicle: saline) does the source give for CCOCC(C#N)C#N here?
A: Its survivor count is 0 of 6.

Q: What about the survivor count (dose: 100.0 mg/kg/injection, schedule: Q04DX003 (ip), vehicle: saline) of the same compound?
A: The survivor count was 0 of 6.

Q: And the survivor count (dose: 200.0 mg/kg/injection, schedule: Q04DX003 (ip), vehicle: saline)?
A: The survivor count was 0 of 6.

Q: And the survivor count (dose: 400.0 mg/kg/injection, schedule: Q04DX003 (ip), vehicle: saline)?
A: The survivor count was 0 of 6.

Q: How did the survivor count [8] turn out when O=C(CCCCCCCCC(=O)N/N=C/c1ccc(Cl)c(Cl)c1)N/N=C/c1ccc(Cl)c(Cl)c1 was run?
A: The survivor count was 6 of 6.

Q: And the survivor count [7]?
A: Its survivor count is 5 of 6.

Q: Which survivor count (dose: 50.0 mg/kg/injection, schedule: Q01DX009 (ip), vehicle: Klucel (hydroxypropylcellulose) (HPC)) does the source give for CC(=O)CC(OC(=O)c1cc([N+](=O)[O-])cc([N+](=O)[O-])c1)(C(F)(F)F)C(F)(F)F here?
A: The survivor count was 1 of 6.

Q: How did the survivor count (dose: 40.0 mg/kg/injection, schedule: Q01DX009 (ip), vehicle: Klucel (hydroxypropylcellulose) (HPC)) turn out when Cc1[nH]c(=O)[nH]c(=O)c1N(CCF)CCCl was run?
A: Its survivor count is 6 of 6.

Q: And the survivor count (dose: 40.0 mg/kg/injection, schedule: Q01DX009 (ip), vehicle: saline)?
A: The survivor count was 10 of 10.

Q: What about the T/C (dose: 65.0 mg/kg/injection, schedule: Q04DX003 (ip), vehicle: Klucel (hydroxypropylcellulose) (HPC)) of the same compound?
A: The T/C was 129 % of control.

Q: And the survivor count (dose: 80.0 mg/kg/injection, schedule: Q01DX009 (ip), vehicle: Klucel (hydroxypropylcellulose) (HPC))?
A: Its survivor count is 0 of 6.

Q: What about the survivor count (dose: 80.0 mg/kg/injection, schedule: Q01DX009 (ip), vehicle: saline) of the same compound?
A: The survivor count was 7 of 10.

Q: And the T/C (dose: 300.0 mg/kg/injection, schedule: Q01DX001 (ip), vehicle: Klucel (hydroxypropylcellulose) (HPC))?
A: Its T/C is 125 % of control.

Q: What about the survivor count (dose: 500.0 mg/kg/injection, schedule: Q01DX001 (ip), vehicle: Klucel (hydroxypropylcellulose) (HPC)) of the same compound?
A: The survivor count was 3 of 8.

Q: How did the survivor count (dose: 100.0 mg/kg/injection, schedule: Q01DX009 (ip), vehicle: Klucel (hydroxypropylcellulose) (HPC)) turn out when CC(c1ccccc1)C1N(c2ccccc2)CCN1c1ccccc1 (stereo unspecified) was run?
A: The survivor count was 6 of 6.

Q: What about the survivor count (dose: 200.0 mg/kg/injection, schedule: Q01DX009 (ip), vehicle: Klucel (hydroxypropylcellulose) (HPC)) of the same compound?
A: Its survivor count is 6 of 6.

Q: What about the survivor count (dose: 400.0 mg/kg/injection, schedule: Q01DX009 (ip), vehicle: Klucel (hydroxypropylcellulose) (HPC)) of the same compound?
A: The survivor count was 6 of 6.

Q: How did the survivor count (dose: 100.0 mg/kg/injection, schedule: Q01DX009 (ip), vehicle: saline with Tween-80) turn out when CCOP(=O)(CSc1ccccc1)OCC was run?
A: Its survivor count is 1 of 3.

Q: What about the survivor count [10] of the same compound?
A: Its survivor count is 1 of 3.

Q: And the survivor count [1]?
A: The survivor count was 0 of 3.

Q: And the survivor count [2]?
A: Its survivor count is 0 of 3.

Q: Which results are given for Cc1ccc(S(=O)(=O)F)cc1C(=O)O?
A: survivor count [9]: 0 of 3 and 0 of 6; survivor count (dose: 400.0 mg/kg/injection, schedule: Q01DX009 (ip), vehicle: carboxymethylcellulose (CMC)): 0 of 3 and 0 of 6; survivor count (dose: 400.0 mg/kg/injection, schedule: Q04DX002 (ip), vehicle: gum acacia): 1 of 3

Q: How did the survivor count [8] turn out when O=C(/C=C/C=C/c1ccccc1)c1ccccc1O was run?
A: Its survivor count is 6 of 6.

Q: CN1C(=O)C2C(N=CN2C)N(C)C1=O (stereo unspecified) was tested. Which survivor count (dose: 400.0 mg/kg/injection, schedule: Q01DX009 (ip), vehicle: saline with Tween-80) did it give?
A: The survivor count was 0 of 6.

Q: CCC(O)C1CCCCN1 (stereo unspecified) was tested. Which survivor count [7] did it give?
A: The survivor count was 1 of 6.
